The list shows a part of the results. These are further read-outs of the screen, such as a control signal, another cell line or another target. No call is given for them. Compounds called inactive in the main read-out are mostly missing here. Potencies come from curve fits of mixed quality, noted in brackets.
Test: qHTS Assay for Modulators of Human Peripheral Myelin Protein 22 (PMP22) Expression/Activity (AID 1967)
Details: Cell-based PMP22 reporter, dual-color luciferase ratio; measured here: green reporter channel AC50; mouse Pmp22 promoter in mouse Schwann cells
Procedure, shortened: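 Mouse MSC80 Schwann cells carrying Pmp22 promoter–green click beetle luciferase plus EF-alpha–red luciferase control, dosed 24 h at 37 °C. Dual-filter luminescence, overlap-corrected; %Activity from green/red ratio normalised to untreated cells, concentration-response curves fitted.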

Q: Which AC50 does the source give for `CC(N)Cc1c[nH]c2ccc(OCc3cccs3)cc12` (stereo unspecified) here?
A: 47.8 µM [falling, partial curve]

Q: Which AC50 does the source give for `CC(C)C[C@H]1C(=O)N2CCCC2[C@]2(O)O[C@](NC(=O)[C@@H]3C=C4c5cccc6[nH]c(Br)c(c56)C[C@H]4N(C)C3)(C(C)C)C(=O)N12` (stereo partly specified) here?
A: 67.5 µM [falling, partial curve]

Q: With `CCC(CO)NC(=O)[C@@H]1C=C2c3cccc4[nH]cc(c34)C[C@H]2N(C)C1` (stereo partly specified) as the compound, how does the AC50 read?
A: 84.9 µM [falling, single point]

Q: Which AC50 does the source give for `O=C(Cc1ccc(Cl)c(Cl)c1)N1CCCCC1CN1CCCC1` (stereo unspecified) here?
A: 53.6 µM [falling, partial curve, poor fit]

Q: With `C[C@]12N[C@H](Cc3ccccc31)c1ccccc12` as the compound, how does the AC50 read?
A: 95.3 µM [falling, single point]

Q: Which AC50 does the source give for `CS(=N)(=O)CC[C@H](N)C(=O)O` (stereo partly specified) here?
A: 30.1 µM [rising, single point]

Q: Which AC50 does the source give for `Nc1ccc(CCN2CCN(c3cccc(C(F)(F)F)c3)CC2)cc1` here?
A: 67.5 µM [falling, partial curve, poor fit]

Q: Which AC50 does the source give for `CCN(CC)C(=O)N[C@@H]1C[C@@H]2c3cccc4[nH]cc(c34)C[C@H]2N(C)C1` here?
A: 42.6 µM [falling, partial curve]

Q: With `Nc1nc(OCc2ccccc2)c2[nH]cnc2n1` as the compound, how does the AC50 read?
A: 67.5 µM [falling, partial curve]

Q: Which AC50 does the source give for `NCC#Cc1ccccc1` here?
A: 60.1 µM [falling, partial curve]
